Values of other authors, collected in patent US20100286079A1, “COMPOSITION COMPRISING COVALENT CONJUGATES OF CHITOSAN AND AN ACIDIC DRUG AND PARENTERAL ADMINISTRATION” (priority 2007, published 2010).

Conditions: cited from earlier work

## CC(C)Cc1ccc(C(C)C(=O)O)cc1 (stereo not shown) [Ibuprofen]
  solubility in water: practically insoluble in water
